According to article PMC5607322:

Molecular target: C. difficile SpoVM-CPD-His6 (Clostridium difficile)
Assay: pull-down

B1: HA-tagged B. subtilis SpoIVA (protein, UniProt P35149 1-492)
chain: MEKVDIFKDIAERTGGDIYLGVVGAVRTGKSTFIKKFMELVVLPNISNEADRARAQDELPQSAAGKTIMTTEPKFVPNQAMSVHVSDGLDVNIRLVDCVGYTVPGAKGYEDENGPRMINTPWYEEPIPFHEAAEIGTRKVIQEHSTIGVVITTDGTIGDIARSDYIEAEERVIEELKEVGKPFIMVINSVRPYHPETEAMRQDLSEKYDIPVLAMSVESMRESDVLSVLREALYEFPVLEVNVNLPSWVMVLKENHWLRESYQESVKETVKDIKRLRDVDRVVGQFSEFEFIESAGLAGIELGQGVAEIDLYAPDHLYDQILKEVVGVEIRGRDHLLELMQDFAHAKTEYDQVSDALKMVKQTGYGIAAPALADMSLDEPEIIRQGSRFGVRLKAVAPSIHMIKVDVESEFAPIIGTEKQSEELVRYLMQDFEDDPLSIWNSDIFGRSLSSIVREGIQAKLSLMPENARYKLKETLERIINEGSGGLIAIIL
  binding: binds

No constants are given. Whether binding was seen depends on the method and setting. In cells and extracts the contact can be indirect. Binding calls can cover weak binding; strength is not graded here. Sequences can lack the tags named with a protein.
